Entries after “also recorded” stand apart in the source; their conditions may differ. For at least one compound, name, drawing or mass did not settle the structure.
Columns and labels:
[1] = system: MBLAC1 WT and MBLAC1 KO mice; experiment: Effect of repeated Cef on cocaine-induced locomotion, open field; assay type: in vivo, mouse; settings: saline pretreated, cocaine 10 mg/kg
Protocol: Animals: All mice were used in accordance with protocols approved by the Florida Atlantic University Institutional Animal Care and Use Committee. Mice were group-housed on a 12 h/12 h light/dark cycle and given ad libitum access to food and water. Breeding was accomplished with mating of heterozygous males with heterozygous females. Male and female mice 11-13 weeks old at the start of the experiment were used in testing the effects of repeated ceftriaxone on response to cocaine in the open field assay. Data from males and females were combined.
Repeated Cef treatment/acute cocaine administration: MBLAC1 wild-type (WT, MBLAC1^+/+) and knockout mice (MBLAC1^−/−) were used in this experiment. Mice were injected IP once daily for 10 days with 200 mg/kg ceftriaxone (CEF) or saline. […] Locomotor activity was evaluated by photocells in the X, Y and Z dimensions. Horizontal beam breaks, vertical beam breaks, and repetitive movements were recorded and measures, including distance traveled, vertical rearing and stereotypic counts, were calculated. Data were analyzed in 5 min time bins within session, and for the first 30 min following cocaine injection. Data were analyzed by two-way ANOVA repeated measures, with time bin as the repeated measure, or by two-way ANOVA for 30 min cumulated data. […]

[2] = system: MBLAC1 WT and HOM (KO) mice; experiment: Cocaine sensitization, repeated cocaine, open field activity; assay type: in vivo, mouse; settings: for Open field activity vs saline, 60 min: first day of cocaine 10 mg/kg IP; for Open field activity, 60 min: single cocaine injection after two-week abstinence

## COC(=O)[C@H]1[C@@H](OC(=O)c2ccccc2)C[C@@H]2CC[C@H]1N2C [cocaine]
[1]; MBLAC1 KO mice
  Total ambulatory distance in open field vs saline, first 30 min: increase in total ambulatory distance; also recorded: equivalent effects
[1]; MBLAC1 WT mice
  Total ambulatory distance in open field vs saline, first 30 min: increase in total ambulatory distance; also recorded: pronounced locomotor activation
[2]; MBLAC1 HOM mice
  Open field activity vs saline, 60 min: increase in total ambulatory distance
  Open field activity, 60 min: the increase in activity was greater in HOM compared to WT mice
[2]; MBLAC1 WT mice
  Open field activity vs saline, 60 min: not significant
  Open field activity, 60 min: increased open field activity
